Data published in publication doi:10.1101/2022.11.01.514535.
Results are given in words; binding and its absence hold for the method and conditions named. In cells and extracts the contact can be indirect. Here binding means that the protein was enriched with, or labelled near, the bait; the list need not be complete. Tags and fused reporters may be left off the sequences shown.

Chains of the proteins cited; added tags and fusions are not shown. Lines headed by an entry give the natural chain unless they say otherwise; changes in a name come on top.
UniProt O95816: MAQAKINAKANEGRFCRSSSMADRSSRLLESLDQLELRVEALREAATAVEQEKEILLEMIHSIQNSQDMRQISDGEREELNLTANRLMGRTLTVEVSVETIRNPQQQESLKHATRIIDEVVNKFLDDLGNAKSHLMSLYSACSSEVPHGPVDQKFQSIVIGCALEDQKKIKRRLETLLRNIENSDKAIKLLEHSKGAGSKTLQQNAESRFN
UniProt P08238: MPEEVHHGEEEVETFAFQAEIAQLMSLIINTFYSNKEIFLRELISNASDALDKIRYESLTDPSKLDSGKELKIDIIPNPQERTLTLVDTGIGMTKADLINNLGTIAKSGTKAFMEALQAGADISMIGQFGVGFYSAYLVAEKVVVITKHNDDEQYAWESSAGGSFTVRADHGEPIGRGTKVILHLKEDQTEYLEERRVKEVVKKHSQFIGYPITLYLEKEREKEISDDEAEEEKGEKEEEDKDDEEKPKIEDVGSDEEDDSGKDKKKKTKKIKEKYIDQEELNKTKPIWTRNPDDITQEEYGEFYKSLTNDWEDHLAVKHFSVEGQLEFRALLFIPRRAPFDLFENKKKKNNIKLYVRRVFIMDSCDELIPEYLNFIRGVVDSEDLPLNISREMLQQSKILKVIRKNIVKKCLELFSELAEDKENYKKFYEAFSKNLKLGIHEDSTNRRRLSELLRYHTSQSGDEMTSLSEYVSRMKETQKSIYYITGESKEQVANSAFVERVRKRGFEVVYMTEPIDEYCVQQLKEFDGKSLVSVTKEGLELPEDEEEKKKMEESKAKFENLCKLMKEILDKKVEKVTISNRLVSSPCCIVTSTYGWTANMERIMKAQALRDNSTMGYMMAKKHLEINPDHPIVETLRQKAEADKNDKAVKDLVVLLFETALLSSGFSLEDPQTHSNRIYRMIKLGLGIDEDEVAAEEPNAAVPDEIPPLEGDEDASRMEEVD
UniProt P0DMV8: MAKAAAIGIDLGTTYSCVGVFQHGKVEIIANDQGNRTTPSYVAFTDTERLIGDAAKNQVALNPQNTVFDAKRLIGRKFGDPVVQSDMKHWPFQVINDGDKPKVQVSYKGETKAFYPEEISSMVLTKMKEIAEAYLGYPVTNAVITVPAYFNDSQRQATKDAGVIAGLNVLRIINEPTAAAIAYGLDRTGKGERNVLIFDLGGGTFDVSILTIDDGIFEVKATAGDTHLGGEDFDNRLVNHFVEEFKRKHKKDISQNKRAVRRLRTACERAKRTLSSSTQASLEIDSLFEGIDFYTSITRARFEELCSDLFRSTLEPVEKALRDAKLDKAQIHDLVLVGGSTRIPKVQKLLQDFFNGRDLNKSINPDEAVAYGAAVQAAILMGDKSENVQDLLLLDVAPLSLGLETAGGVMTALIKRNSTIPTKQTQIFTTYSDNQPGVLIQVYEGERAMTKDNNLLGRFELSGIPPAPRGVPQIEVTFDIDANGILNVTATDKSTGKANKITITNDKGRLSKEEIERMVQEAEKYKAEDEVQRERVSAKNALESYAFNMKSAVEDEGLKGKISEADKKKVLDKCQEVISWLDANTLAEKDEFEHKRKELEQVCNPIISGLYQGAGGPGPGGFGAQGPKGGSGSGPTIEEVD
UniProt P34932: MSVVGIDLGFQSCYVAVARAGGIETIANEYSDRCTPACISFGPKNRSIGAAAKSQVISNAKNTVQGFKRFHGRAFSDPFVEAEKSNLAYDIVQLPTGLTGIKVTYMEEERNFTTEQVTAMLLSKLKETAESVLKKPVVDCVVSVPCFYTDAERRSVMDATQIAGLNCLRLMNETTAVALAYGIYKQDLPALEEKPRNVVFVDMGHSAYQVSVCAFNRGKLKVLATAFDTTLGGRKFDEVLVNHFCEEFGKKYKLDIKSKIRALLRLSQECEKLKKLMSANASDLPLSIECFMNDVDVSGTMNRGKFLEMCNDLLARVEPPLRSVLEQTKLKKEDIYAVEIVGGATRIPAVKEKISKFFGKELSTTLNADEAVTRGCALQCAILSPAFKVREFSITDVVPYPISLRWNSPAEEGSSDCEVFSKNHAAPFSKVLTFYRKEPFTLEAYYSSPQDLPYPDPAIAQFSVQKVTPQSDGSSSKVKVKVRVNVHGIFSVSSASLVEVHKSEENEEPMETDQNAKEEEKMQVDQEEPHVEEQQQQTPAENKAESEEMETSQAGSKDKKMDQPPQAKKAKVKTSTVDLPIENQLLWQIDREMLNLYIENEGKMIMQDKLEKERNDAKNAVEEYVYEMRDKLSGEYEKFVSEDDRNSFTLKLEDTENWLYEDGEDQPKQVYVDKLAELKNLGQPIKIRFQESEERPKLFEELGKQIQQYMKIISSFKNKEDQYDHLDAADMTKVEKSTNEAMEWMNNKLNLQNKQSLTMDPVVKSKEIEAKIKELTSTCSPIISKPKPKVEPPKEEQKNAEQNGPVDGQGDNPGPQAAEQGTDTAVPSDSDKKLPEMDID
UniProt P11142: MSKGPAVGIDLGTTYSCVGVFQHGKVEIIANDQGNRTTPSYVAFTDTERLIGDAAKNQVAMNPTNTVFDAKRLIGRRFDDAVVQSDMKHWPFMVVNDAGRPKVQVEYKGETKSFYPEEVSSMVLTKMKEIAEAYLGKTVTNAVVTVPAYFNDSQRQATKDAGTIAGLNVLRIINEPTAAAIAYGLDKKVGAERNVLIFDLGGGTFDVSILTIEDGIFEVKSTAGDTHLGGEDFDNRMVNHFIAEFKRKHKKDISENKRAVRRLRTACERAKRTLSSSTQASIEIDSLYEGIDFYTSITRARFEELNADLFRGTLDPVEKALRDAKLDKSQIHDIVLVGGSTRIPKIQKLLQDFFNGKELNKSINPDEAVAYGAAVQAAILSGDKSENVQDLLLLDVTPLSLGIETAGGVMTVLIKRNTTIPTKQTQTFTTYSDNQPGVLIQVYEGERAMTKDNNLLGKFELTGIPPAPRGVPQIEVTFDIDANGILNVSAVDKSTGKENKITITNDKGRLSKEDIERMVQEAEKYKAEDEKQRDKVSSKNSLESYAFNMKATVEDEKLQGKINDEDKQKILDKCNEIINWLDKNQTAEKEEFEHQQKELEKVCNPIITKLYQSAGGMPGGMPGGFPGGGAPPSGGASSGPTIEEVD
UniProt P63208: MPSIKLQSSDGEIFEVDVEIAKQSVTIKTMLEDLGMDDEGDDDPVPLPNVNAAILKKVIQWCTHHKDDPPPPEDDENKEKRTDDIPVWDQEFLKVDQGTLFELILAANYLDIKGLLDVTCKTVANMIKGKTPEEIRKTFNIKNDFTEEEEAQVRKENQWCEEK

T1: FBXL6-Flag (F-box/LRR-repeat protein 6, wild type) (human) (UniProt Q8N531)
T1 sequence: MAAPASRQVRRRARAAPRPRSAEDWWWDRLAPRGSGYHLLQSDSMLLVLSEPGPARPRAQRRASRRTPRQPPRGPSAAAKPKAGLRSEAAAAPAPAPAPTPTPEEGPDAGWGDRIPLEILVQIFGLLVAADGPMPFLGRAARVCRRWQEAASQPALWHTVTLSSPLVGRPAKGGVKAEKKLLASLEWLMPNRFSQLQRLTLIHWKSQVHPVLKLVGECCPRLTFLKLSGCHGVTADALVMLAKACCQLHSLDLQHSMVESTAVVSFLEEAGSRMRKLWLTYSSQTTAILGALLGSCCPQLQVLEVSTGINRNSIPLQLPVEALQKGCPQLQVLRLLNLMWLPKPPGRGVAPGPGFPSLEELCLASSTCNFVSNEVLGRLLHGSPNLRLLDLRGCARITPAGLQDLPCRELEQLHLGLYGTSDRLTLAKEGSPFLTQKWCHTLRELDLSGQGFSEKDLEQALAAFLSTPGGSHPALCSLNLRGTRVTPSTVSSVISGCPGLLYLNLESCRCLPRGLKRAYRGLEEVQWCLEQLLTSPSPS

B1: NEMF (protein, UniProt O60524 1-1076)
chain: MKSRFSTIDLRAVLAELNASLLGMRVNNVYDVDNKTYLIRLQKPDFKATLLLESGIRIHTTEFEWPKNMMPSSFAMKCRKHLKSRRLVSAKQLGVDRIVDFQFGSDEAAYHLIIELYDRGNIVLTDYEYVILNILRFRTDEADDVKFAVRERYPLDHARAAEPLLTLERLTEIVASAPKGELLKRVLNPLLPYGPALIEHCLLENGFSGNVKVDEKLETKDIEKVLVSLQKAEDYMKTTSNFSGKGYIIQKREIKPSLEADKPVEDILTYEEFHPFLFSQHSQCPYIEFESFDKAVDEFYSKIEGQKIDLKALQQEKQALKKLDNVRKDHENRLEALQQAQEIDKLKGELIEMNLQIVDRAIQVVRSALANQIDWTEIGLIVKEAQAQGDPVASAIKELKLQTNHVTMLLRNPYLLSEEEDDDVDGDVNVEKNETEPPKGKKKKQKNKQLQKPQKNKPLLVDVDLSLSAYANAKKYYDHKRYAAKKTQKTVEAAEKAFKSAEKKTKQTLKEVQTVTSIQKARKVYWFEKFLWFISSENYLIIGGRDQQQNEIIVKRYLTPGDIYVHADLHGATSCVIKNPTGEPIPPRTLTEAGTMALCYSAAWDARVITSAWWVYHHQVSKTAPTGEYLTTGSFMIRGKKNFLPPSYLMMGFSFLFKVDESCVWRHQGERKVRVQDEDMETLASCTSELISEEMEQLDGGDTSSDEDKEEHETPVEVELMTQVDQEDITLQSGRDELNEELIQEESSEDEGEYEEVRKDQDSVGEMKDEGEETLNYPDTTIDLSHLQPQRSIQKLASKEESSNSSDSKSQSRRHLSAKERREMKKKKLPSDSGDLEALEGKDKEKESTVHIETHQNTSKNVAAVQPMKRGQKSKMKKMKEKYKDQDEEDRELIMKLLGSAGSNKEEKGKKGKKGKTKDEPVKKQPQKPRGGQRVSDNIKKETPFLEVITHELQDFAVDDPHDDKEEQDLDQQGNEENLFDSLTGQPHPEDVLLFAIPICAPYTTMTNYKYKVKLTPGVQKKGKAAKTALNSFMHSKEATAREKDLFRSVKDTDLSRNIPGKVKVSAPNLLNVKRK

molecular target: T1, FBXL6-Flag (F-box/LRR-repeat protein 6, wild type) (human); assay: affinity purification with mass spectrometry

Row | binding | Molecule
1 | binds | BAG2 (from UniProt O95816 1-211)
2 | binds | HSP90AB1 (from UniProt P08238 1-724)
3 | binds | HSPA1A (heat shock protein A1A) (from UniProt P0DMV8 1-641)
4 | binds | HSPA4 (from UniProt P34932 1-840)
5 | binds | HSPA8 (from UniProt P11142 1-646)
6 | binds | SKP1 (from UniProt P63208 1-163)
7 | binds | B1
